Results reported in article PMC4313699.
Results are given in words; binding and its absence hold for the method and conditions named. Binding seen in cells or lysates may run through a third protein. Some results given as binding are weak or reduced against the parent protein; the word gives no strength. Sequences can lack the tags named with a protein.

The chains behind the UniProt entries cited, without tags or fusion partners. Where a name states a change or a piece, a line headed by the entry shows the natural chain unless it says otherwise. A line that says so, or that is headed by a name, gives the form on record, which may keep a tag or linker. Residues count along the entry.
GluA1 (P19490, residues 19-907): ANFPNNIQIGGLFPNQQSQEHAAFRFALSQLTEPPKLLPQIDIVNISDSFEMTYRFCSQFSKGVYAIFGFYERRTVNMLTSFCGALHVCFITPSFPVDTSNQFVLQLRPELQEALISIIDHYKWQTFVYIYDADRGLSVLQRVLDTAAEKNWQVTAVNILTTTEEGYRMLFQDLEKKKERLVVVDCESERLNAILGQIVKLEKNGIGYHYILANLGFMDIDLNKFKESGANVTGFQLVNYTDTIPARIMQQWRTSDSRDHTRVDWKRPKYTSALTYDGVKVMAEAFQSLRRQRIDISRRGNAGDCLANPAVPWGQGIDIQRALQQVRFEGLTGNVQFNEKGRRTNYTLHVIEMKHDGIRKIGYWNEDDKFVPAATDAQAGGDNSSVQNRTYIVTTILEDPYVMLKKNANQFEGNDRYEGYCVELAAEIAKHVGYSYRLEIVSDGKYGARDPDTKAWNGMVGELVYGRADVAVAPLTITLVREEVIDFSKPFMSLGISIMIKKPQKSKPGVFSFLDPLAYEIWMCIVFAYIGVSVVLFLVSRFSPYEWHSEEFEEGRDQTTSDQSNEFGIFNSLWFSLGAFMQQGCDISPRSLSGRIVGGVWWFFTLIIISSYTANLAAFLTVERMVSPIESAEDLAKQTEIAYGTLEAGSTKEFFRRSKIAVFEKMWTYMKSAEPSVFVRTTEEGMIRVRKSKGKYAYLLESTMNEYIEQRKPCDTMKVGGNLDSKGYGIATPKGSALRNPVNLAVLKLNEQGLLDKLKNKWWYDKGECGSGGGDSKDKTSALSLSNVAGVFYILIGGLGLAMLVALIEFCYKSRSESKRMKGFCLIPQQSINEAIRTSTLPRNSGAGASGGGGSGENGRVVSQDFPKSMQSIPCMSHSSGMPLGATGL
GluA1(C585,811S) (P19490, form named): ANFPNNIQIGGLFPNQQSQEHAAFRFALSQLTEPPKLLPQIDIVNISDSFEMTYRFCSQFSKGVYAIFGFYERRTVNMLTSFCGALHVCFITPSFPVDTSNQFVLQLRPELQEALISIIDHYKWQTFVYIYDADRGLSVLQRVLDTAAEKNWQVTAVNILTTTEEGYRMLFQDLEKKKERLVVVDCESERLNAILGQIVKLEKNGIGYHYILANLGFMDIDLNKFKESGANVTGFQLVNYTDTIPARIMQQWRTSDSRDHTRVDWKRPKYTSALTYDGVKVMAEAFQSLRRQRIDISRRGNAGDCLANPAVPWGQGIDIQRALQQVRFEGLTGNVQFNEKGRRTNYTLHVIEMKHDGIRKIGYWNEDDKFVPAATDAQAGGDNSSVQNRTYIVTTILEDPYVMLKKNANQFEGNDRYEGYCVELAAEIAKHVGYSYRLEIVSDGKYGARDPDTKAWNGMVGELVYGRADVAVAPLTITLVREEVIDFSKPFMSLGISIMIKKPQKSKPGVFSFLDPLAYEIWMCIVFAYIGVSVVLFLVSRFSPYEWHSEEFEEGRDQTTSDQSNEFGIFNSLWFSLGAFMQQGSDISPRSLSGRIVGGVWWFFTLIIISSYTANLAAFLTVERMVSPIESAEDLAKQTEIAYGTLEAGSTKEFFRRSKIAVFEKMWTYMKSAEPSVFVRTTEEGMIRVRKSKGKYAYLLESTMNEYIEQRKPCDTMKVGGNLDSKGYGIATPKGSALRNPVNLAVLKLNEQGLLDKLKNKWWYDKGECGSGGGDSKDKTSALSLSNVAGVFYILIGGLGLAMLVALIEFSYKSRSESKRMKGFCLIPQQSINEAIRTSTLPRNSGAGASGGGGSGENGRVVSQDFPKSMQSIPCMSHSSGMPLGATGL
GluA1(C585S) (P19490, form named): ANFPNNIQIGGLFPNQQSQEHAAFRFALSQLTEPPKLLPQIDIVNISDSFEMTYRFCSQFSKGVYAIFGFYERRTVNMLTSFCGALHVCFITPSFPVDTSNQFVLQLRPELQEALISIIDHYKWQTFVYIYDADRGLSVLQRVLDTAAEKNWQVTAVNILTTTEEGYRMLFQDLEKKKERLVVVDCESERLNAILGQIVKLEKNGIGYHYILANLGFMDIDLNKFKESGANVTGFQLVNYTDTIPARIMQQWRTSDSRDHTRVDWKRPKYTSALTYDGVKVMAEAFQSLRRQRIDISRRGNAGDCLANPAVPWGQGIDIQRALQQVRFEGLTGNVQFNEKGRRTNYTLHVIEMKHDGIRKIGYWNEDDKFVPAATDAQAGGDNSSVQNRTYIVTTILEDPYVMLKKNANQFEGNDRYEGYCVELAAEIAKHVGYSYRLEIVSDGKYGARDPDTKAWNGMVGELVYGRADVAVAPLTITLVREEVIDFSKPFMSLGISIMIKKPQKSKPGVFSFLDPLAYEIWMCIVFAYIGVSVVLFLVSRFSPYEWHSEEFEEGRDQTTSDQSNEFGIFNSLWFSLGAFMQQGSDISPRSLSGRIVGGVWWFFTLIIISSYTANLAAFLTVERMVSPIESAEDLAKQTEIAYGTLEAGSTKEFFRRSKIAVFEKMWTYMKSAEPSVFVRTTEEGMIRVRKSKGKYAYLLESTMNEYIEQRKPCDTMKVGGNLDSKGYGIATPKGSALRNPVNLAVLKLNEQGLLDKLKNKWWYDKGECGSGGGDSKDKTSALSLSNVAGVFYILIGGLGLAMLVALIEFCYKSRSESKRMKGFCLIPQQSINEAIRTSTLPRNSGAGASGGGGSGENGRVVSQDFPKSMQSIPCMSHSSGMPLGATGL
GluA1(C811S) (P19490, form named): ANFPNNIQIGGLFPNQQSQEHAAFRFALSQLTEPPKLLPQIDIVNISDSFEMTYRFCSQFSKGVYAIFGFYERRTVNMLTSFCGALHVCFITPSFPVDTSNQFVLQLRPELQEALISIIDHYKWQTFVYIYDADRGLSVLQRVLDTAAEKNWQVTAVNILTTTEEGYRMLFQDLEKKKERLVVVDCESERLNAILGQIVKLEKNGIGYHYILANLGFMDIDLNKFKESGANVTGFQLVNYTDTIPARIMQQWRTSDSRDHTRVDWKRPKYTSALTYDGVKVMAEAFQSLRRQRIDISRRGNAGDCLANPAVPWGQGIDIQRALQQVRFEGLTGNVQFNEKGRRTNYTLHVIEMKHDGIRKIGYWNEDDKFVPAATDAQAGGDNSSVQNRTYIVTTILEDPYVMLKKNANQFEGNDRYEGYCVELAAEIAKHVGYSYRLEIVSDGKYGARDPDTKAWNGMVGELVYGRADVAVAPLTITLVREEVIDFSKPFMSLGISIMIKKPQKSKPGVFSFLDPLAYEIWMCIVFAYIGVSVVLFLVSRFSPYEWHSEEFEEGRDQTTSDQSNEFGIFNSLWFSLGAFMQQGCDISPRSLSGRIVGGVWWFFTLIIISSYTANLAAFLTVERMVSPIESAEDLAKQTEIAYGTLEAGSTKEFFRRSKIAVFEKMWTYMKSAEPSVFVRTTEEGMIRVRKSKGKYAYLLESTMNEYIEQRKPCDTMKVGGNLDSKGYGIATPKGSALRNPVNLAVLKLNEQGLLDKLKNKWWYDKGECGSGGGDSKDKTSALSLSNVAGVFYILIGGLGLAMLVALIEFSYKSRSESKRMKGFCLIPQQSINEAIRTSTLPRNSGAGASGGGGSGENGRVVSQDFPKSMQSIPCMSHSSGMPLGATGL
UniProt P19491, residues 22-883: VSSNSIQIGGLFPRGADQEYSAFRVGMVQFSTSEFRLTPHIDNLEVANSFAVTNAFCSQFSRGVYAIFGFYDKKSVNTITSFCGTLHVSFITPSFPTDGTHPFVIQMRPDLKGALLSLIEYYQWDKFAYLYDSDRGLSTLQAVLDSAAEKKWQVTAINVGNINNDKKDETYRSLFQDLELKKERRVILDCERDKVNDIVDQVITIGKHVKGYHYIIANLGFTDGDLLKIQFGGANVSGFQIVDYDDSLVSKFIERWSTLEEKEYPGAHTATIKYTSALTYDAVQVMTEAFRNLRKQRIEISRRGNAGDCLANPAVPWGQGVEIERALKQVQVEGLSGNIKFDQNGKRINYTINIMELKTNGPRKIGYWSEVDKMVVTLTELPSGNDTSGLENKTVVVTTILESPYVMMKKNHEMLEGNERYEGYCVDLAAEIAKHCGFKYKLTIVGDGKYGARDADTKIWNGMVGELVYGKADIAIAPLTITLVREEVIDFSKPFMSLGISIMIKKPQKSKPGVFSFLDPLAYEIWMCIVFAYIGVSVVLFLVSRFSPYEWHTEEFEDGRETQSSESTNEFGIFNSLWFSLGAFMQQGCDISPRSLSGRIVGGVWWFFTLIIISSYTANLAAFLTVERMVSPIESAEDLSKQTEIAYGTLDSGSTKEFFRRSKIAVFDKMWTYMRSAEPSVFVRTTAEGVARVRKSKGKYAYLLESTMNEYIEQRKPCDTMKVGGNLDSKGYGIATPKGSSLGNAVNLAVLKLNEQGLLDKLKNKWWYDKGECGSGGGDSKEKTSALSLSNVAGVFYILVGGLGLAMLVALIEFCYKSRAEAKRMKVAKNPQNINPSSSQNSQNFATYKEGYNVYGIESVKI

T1: CPT1C-GFP (carnitine palmitoyltransferase 1C, C-terminally tagged with EGFP) (rat) (UniProt F1LN46)
T1 sequence: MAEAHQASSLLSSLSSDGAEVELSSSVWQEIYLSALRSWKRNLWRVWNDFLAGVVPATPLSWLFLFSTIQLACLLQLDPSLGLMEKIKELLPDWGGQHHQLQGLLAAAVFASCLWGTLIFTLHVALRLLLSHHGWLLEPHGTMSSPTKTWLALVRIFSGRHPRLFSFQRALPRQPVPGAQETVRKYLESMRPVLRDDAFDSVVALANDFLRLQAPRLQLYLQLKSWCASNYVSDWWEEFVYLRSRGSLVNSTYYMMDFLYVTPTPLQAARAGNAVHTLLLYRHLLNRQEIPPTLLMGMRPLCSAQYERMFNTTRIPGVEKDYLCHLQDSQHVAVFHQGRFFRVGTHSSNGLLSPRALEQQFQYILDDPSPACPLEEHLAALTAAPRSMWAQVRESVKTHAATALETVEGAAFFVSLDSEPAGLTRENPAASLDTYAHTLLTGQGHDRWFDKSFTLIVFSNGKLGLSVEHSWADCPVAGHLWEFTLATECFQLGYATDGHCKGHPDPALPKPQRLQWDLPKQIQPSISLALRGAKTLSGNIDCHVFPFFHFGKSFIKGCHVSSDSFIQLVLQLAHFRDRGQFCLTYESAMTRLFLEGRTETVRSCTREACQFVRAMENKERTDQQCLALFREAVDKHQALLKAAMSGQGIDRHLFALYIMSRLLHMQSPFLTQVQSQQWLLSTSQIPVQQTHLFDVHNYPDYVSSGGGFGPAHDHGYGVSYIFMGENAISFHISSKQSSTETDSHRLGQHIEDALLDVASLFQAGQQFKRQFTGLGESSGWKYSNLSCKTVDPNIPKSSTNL


Tests used:
Assay in all cases: co-IP; membrane fraction of co-transfected tsA201 cells solubilised in 1 % Triton X-100, 150 mM NaCl, 50 mM Tris-HCl pH 8; 200-400 ug protein with 4 ug antibody (anti-GFP, anti-GluA1-NT or anti-GluA2) overnight at 4 C, Protein-A sepharose, three washes, Western blot
[1] = molecular target: T1, CPT1C-GFP (carnitine palmitoyltransferase 1C, C-terminally tagged with EGFP) (rat)
GluA1 (rat) = GluA1 (rat) (UniProt P19490)
GluA2 (rat) = GluA2 (rat) (UniProt P19491)

Row | Molecule | binding [1] | binding (GluA1 (rat)) | binding (GluA2 (rat))
1 | GluA1(C585,811S) (from UniProt P19490 19-907) (receptor) | binds |  | 
2 | GluA1(C585S) (from UniProt P19490 19-907) (receptor) | binds |  | 
3 | CPT1C-GFP (carnitine palmitoyltransferase 1C, C-terminally tagged with EGFP) (protein, UniProt F1LN46 1-801) MAEAHQASSLLSSLSSDGAEVELSSSVWQEIYLSALRSWKRNLWRVWNDFLAGVVPATPLSWLFLFSTIQLACLLQLDPSLGLMEKIKELLPDWGGQHHQLQGLLAAAVFASCLWGTLIFTLHVALRLLLSHHGWLLEPHGTMSSPTKTWLALVRIFSGRHPRLFSFQRALPRQPVPGAQETVRKYLESMRPVLRDDAFDSVVALANDFLRLQAPRLQLYLQLKSWCASNYVSDWWEEFVYLRSRGSLVNSTYYMMDFLYVTPTPLQAARAGNAVHTLLLYRHLLNRQEIPPTLLMGMRPLCSAQYERMFNTTRIPGVEKDYLCHLQDSQHVAVFHQGRFFRVGTHSSNGLLSPRALEQQFQYILDDPSPACPLEEHLAALTAAPRSMWAQVRESVKTHAATALETVEGAAFFVSLDSEPAGLTRENPAASLDTYAHTLLTGQGHDRWFDKSFTLIVFSNGKLGLSVEHSWADCPVAGHLWEFTLATECFQLGYATDGHCKGHPDPALPKPQRLQWDLPKQIQPSISLALRGAKTLSGNIDCHVFPFFHFGKSFIKGCHVSSDSFIQLVLQLAHFRDRGQFCLTYESAMTRLFLEGRTETVRSCTREACQFVRAMENKERTDQQCLALFREAVDKHQALLKAAMSGQGIDRHLFALYIMSRLLHMQSPFLTQVQSQQWLLSTSQIPVQQTHLFDVHNYPDYVSSGGGFGPAHDHGYGVSYIFMGENAISFHISSKQSSTETDSHRLGQHIEDALLDVASLFQAGQQFKRQFTGLGESSGWKYSNLSCKTVDPNIPKSSTNL |  | binds | binds

Further lines, results first:

Row | binding [1] | binding (GluA1 (rat)) | binding (GluA2 (rat)) | Molecule
4 | binds |  |  | GluA1 (from UniProt P19490 19-907) (receptor)
5 | binds |  |  | GluA1(C811S) (from UniProt P19490 19-907) (receptor)
6 | binds |  |  | GluA2 (from UniProt P19491 22-883) (receptor)
